Results are given in words; binding and its absence hold for the method and conditions named. Binding seen in cells or lysates may run through a third protein. Here binding means that the protein was enriched with, or labelled near, the bait; the list need not be complete.
Biological target: mNeonGreen tagged GSP-2 (C. elegans) (UniProt P48727)
Experiment: affinity purification with mass spectrometry; mNeonGreen::GSP-2 precipitated from about 3 mg embryonic extract with mNeonGreen-Trap Agarose beads, 4 °C, 1.5 h; IP buffer 100 mM KCl, 50 mM Tris pH 7.5, 1 mM MgCl2, 1 mM DTT, 5% glycerol, 0.2% NP-40, 1 mM EDTA; N2 strain as control; triplicate; DIA mass spectrometry

Protein sequences, listed by entry. Tags and fused reporters are not part of them.
UniProt P48727: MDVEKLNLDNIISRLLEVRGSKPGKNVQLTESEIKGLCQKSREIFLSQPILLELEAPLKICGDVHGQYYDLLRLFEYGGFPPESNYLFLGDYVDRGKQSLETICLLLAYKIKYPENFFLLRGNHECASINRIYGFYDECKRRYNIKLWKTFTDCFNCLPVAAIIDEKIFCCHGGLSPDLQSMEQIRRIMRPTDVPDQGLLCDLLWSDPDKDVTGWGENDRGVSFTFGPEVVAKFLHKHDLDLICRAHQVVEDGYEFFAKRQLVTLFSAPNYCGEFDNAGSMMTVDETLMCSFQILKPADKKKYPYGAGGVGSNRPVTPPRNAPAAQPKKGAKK

SZY-2(I-2) (from UniProt Q9N537) was tested, and the binding was “binds”.
